# Data: PubChem BioAssay AID2685 (National Center for Advancing Translational Sciences (NCATS), 2010)
# The list shows a part of the results. The main result of the screen is listed elsewhere. These columns were measured beside it and carry no call. Most of these compounds were active or inconclusive in the main read-out, so they are no random draw. Words in brackets tell the shape of the fitted curve; partial curves, single points and poor fits give uncertain potencies.
# Assay: qHTS Assay for Lipid Storage Modulators in Drosophila S3 Cells;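 as to cell number change: cells counted by Cell Tracker Red CMTPX staining in the red channel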
# Settings: BODIPY lipid droplet fluorescence, 18-24 h; for cell number change: measured here: cell count max response, cells fed with added oleic acid
# Summary of the method: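 Drosophila S3 cells got compounds at several concentrations plus oleic acid (400 uM solution). Laser-scanning cytometry with 488 nm excitation read lipid droplets at 500-530 nm and cells at 575-640 nm. Percent activity was relative to 20 uM Triacsin C.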
# [1] = measured here: lipid fluorescence (Fed channel) AC50, cells fed with added oleic acid
# [2] = measured here: cell number channel AC50, cells fed with added oleic acid
structure (smiles),measurement,setting,value
CCc1ccc(-c2cc3c(=O)n(CC(=O)N4CCCCCC4)nc(C)n3n2)cc1,cell number change,,18.8%
Cc1cc(C)c(S(=O)(=O)N2CCCC(C(=O)NC3CCCC3)C2)c(C)c1 (stereo not given),cell number change,,14.6%
CCOc1cc(C(=S)N2CCOCC2)ccc1OS(=O)(=O)c1ccccc1,cell number change,,13.8%
same,AC50,[1],"1.46 µM [rising, partial curve]"
Cc1c(CC(=O)NCC(=O)N[C@H](Cc2ccccc2)C(=O)O)c(=O)oc2cc(O)ccc12,cell number change,,25.9%
same,AC50,[1],"29.1 µM [falling, single point]"
COc1nc(N2CCCCCC2)nc(N2CCCCCC2)n1,cell number change,,-34.6%
same,AC50,[2],"32.6 µM [falling, single point]"
COc1ccc(C)cc1Nc1nc(-c2c(C)[nH]c3ccccc23)cs1,cell number change,,-2.41%
CCSc1nc2ccccc2n1C(=O)/C=C\c1ccc(OC)c(OC)c1,cell number change,,-59.3%
same,AC50,[2],"23.1 µM [falling, single point]"
CCOc1cc(CNCCSc2nnnn2C)cc(Br)c1OCc1ccc(F)cc1,cell number change,,-31.6%
same,AC50,[2],"13 µM [falling, single point]"
same,AC50,[1],"16.4 µM [falling, single point]"
Cn1nccc1CNC(=O)c1c(Cl)cnn1C,cell number change,,-2.07%
same,AC50,[1],"0.58 µM [falling, single point]"
CCOC(=O)C1(CC2CC2)CCN(C(=O)c2cc(C)nc3ccc(CC)cc23)CC1,cell number change,,-18.6%
CC(=O)c1ccc(NC(=O)C(C)OC(=O)CCCN=C2NS(=O)(=O)c3ccccc32)cc1 (stereo not given),cell number change,,-8.48%
same,AC50,[1],"6.51 µM [falling, single point]"
CCCCNC(=O)c1cc2c(=O)n3cccc(C)c3nc2n(Cc2ccncc2)c1=N,AC50,[1],"0.58 µM [rising, single point]"
Cc1ccc(C(c2cc(Br)ccc2O)N2CCSCC2)cc1 (stereo not given),cell number change,,14.4%
same,AC50,[1],"29.1 µM [falling, single point]"
COc1ccccc1NC(=O)N(c1c(N)n(Cc2ccccc2)c(=O)[nH]c1=O)C1CCCC1,cell number change,,3.54%
Oc1ccc(-c2csc(Nc3ncccn3)n2)cc1O,cell number change,,-6.09%
COc1ccc(C2=NO[C@@H]3C(=O)N(c4ccc(C)cc4C)C(=O)[C@H]23)cc1OC,cell number change,,32.7%
same,AC50,[2],"29.1 µM [rising, single point]"
same,AC50,[1],"0.116 µM [falling, full curve, poor fit]"
C=CCOc1ccccc1CN1CCCCCC1,cell number change,,4.49%
same,AC50,[1],"0.259 µM [rising, full curve, poor fit]"
CCN(C(=O)COC(=O)c1ccccc1NCCO)C1CCS(=O)(=O)C1 (stereo not given),cell number change,,-22.9%
Cc1oc(C(C)(C)C)cc1C(=O)NCc1ccc2c(c1)OCO2,cell number change,,-22.9%
same,AC50,[2],"3.26 µM [falling, full curve, poor fit]"
same,AC50,[1],"4.11 µM [falling, full curve]"
CCOC(=O)c1c(C)nc2cc(C)cc(C)n12,AC50,[1],"6.31 µM [rising, partial curve]"
Oc1ccc(-c2nc3ccccc3nc2-c2ccccc2)cc1,AC50,[1],"20.6 µM [falling, single point]"
O=C(Nc1ccccc1Cl)c1ccc(-n2cccn2)c([N+](=O)[O-])c1,cell number change,,-6.46%
Cc1ccc(C2NC(=O)c3ccccc3O2)cc1 (stereo not given),cell number change,,2.76%
same,AC50,[1],"29.1 µM [rising, single point]"
CC1CCCCN1CCNC(=O)c1cc2c(=O)n(C)c3ccccc3c2n1C (stereo not given),cell number change,,31.7%
same,AC50,[2],"6.51 µM [rising, single point]"
same,AC50,[1],"0.731 µM [rising, partial curve]"
CCOc1ccccc1NC(=O)c1ccoc1C,cell number change,,30.4%
same,AC50,[2],"29.1 µM [rising, single point]"
C=CCN(c1ccccc1)S(=O)(=O)c1cccc(C(=O)NNC(=O)c2ccccc2O)c1,cell number change,,35%
same,AC50,[2],"18.4 µM [rising, single point]"
same,AC50,[1],"18.4 µM [rising, single point]"
COc1ccc(CC(=O)OCC(=O)Nc2ccc3[nH]c(=O)[nH]c3c2)cc1,cell number change,,-20.4%
same,AC50,[2],"3.66 µM [falling, full curve, poor fit]"
same,AC50,[1],"2.31 µM [falling, single point]"
O=C(N=c1ccn(-c2nc3ccccc3nc2NS(=O)(=O)c2ccccc2)cc1)c1ccccc1Cl,cell number change,,-1.91%
same,AC50,[1],"29.1 µM [rising, single point]"
COCCCNS(=O)(=O)c1ccc(Cl)c(C(F)(F)F)c1,cell number change,,56.9%
same,AC50,[2],"29.1 µM [rising, single point]"
same,AC50,[1],"29.1 µM [rising, single point]"
Cc1ccc(F)cc1NC(=O)C1C2CCC(O2)C1C(=O)O (stereo not given),cell number change,,-18.5%
same,AC50,[1],"14.6 µM [rising, partial curve]"
CCOC(=O)C1CCN(C(=O)Cn2nc(C)n3nc(-c4ccc(OC)cc4)cc3c2=O)CC1,cell number change,,-14.4%
same,AC50,[1],"3.66 µM [rising, full curve]"
CC1(C)CC(=O)c2cnc(NC3CC3)nc2C1,cell number change,,-37.3%
same,AC50,[2],"3.66 µM [falling, full curve]"
same,AC50,[1],"6.51 µM [falling, single point]"
CCOc1ccc(CC(=O)N/N=C(\C)c2cccnc2)cc1,AC50,[1],"0.58 µM [falling, single point]"
COc1ccc(S(=O)(=O)N2CCCC(C(=O)Nc3ccc(OC)c(OC)c3)C2)cc1 (stereo not given),cell number change,,-9.8%
same,AC50,[1],"18.4 µM [rising, partial curve]"
Nc1nc2sc3c(c2cc1C(=O)N1CCOCC1)CCCC3,cell number change,,-8.73%
same,AC50,[1],"0.00517 µM [falling, full curve, poor fit]"
CCCCNCCCCOc1ccccc1,cell number change,,-30.7%
same,AC50,[1],"0.116 µM [falling, partial curve, poor fit]"
COc1ccc(Nc2nc(N)nc(CSC(=S)N3CCCCC3C)n2)cc1 (stereo not given),cell number change,,-21.3%
same,AC50,[1],"23.1 µM [falling, partial curve]"
CCOC(=O)N1CCN(C(=O)CSc2nnc(-c3ccccc3OC)o2)CC1,cell number change,,-7.99%
same,AC50,[1],"0.0184 µM [rising, full curve]"
Cc1cc(C(=O)Nc2ccc(N3CCOCC3)cc2)c2ccccc2n1,cell number change,,174%
same,AC50,[2],"16.4 µM [rising, partial curve]"
same,AC50,[1],"23.1 µM [rising, partial curve]"

# Part of the list above, with bars between the fields.
structure (smiles) | measurement | setting | value
Cn1nccc1CNC(=O)c1c(Cl)cnn1C | AC50 | [1] | 0.58 µM [falling, single point]
CC(=O)c1ccc(NC(=O)C(C)OC(=O)CCCN=C2NS(=O)(=O)c3ccccc32)cc1 (stereo not given) | cell number change |  | -8.48%
CCCCNC(=O)c1cc2c(=O)n3cccc(C)c3nc2n(Cc2ccncc2)c1=N | AC50 | [1] | 0.58 µM [rising, single point]
Oc1ccc(-c2csc(Nc3ncccn3)n2)cc1O | cell number change |  | -6.09%
CCN(C(=O)COC(=O)c1ccccc1NCCO)C1CCS(=O)(=O)C1 (stereo not given) | cell number change |  | -22.9%
Cc1oc(C(C)(C)C)cc1C(=O)NCc1ccc2c(c1)OCO2 | cell number change |  | -22.9%
same | AC50 | [2] | 3.26 µM [falling, full curve, poor fit]
same | AC50 | [1] | 4.11 µM [falling, full curve]
CCOC(=O)c1c(C)nc2cc(C)cc(C)n12 | AC50 | [1] | 6.31 µM [rising, partial curve]
Cc1ccc(C2NC(=O)c3ccccc3O2)cc1 (stereo not given) | AC50 | [1] | 29.1 µM [rising, single point]
CC1CCCCN1CCNC(=O)c1cc2c(=O)n(C)c3ccccc3c2n1C (stereo not given) | AC50 | [1] | 0.731 µM [rising, partial curve]
CCOc1ccccc1NC(=O)c1ccoc1C | cell number change |  | 30.4%
C=CCN(c1ccccc1)S(=O)(=O)c1cccc(C(=O)NNC(=O)c2ccccc2O)c1 | cell number change |  | 35%
COc1ccc(CC(=O)OCC(=O)Nc2ccc3[nH]c(=O)[nH]c3c2)cc1 | cell number change |  | -20.4%
O=C(N=c1ccn(-c2nc3ccccc3nc2NS(=O)(=O)c2ccccc2)cc1)c1ccccc1Cl | cell number change |  | -1.91%
same | AC50 | [1] | 29.1 µM [rising, single point]
COCCCNS(=O)(=O)c1ccc(Cl)c(C(F)(F)F)c1 | AC50 | [1] | 29.1 µM [rising, single point]
COc1ccc(S(=O)(=O)N2CCCC(C(=O)Nc3ccc(OC)c(OC)c3)C2)cc1 (stereo not given) | cell number change |  | -9.8%
Nc1nc2sc3c(c2cc1C(=O)N1CCOCC1)CCCC3 | cell number change |  | -8.73%
Cc1cc(C(=O)Nc2ccc(N3CCOCC3)cc2)c2ccccc2n1 | cell number change |  | 174%
